The target in one assay is ΔTM rat FAAH (Rattus norvegicus, UniProt P97612). In words: Fluorescent assay protocol for ΔTM rat FAAH (AAMCA substrate). The conditions noted are these: read-out: IC50 rFAAH. Type of assay: biochemical.
A further assay deals with Human FAAH (MBPΔTMhFAAH) (Homo sapiens, UniProt O00519). Description: Fluorescent assay protocol for hFAAH. To be noted: read-out: IC50 hFAAH.
In a further assay the target is Rat MAGL (rMAGL) (Rattus norvegicus, UniProt Q8R431). In words: Fluorescent assay protocol for rMAGL. In kind it is biochemical. To be noted: read-out: IC50 rMAGL.
For a further assay, the target named is Human MAGL (hMAGL) (Homo sapiens, UniProt Q99685). Description: Fluorescent assay protocol for hMAGL (AHMMCE substrate). Type of assay: biochemical. The conditions noted are these: read-out: IC50 hMAGL.
Setting [1] is: ΔTM rat FAAH, AAMCA substrate, 15 min preincubation.
Where [2] appears, read: human FAAH (MBP fusion, ΔTM), procedure as for rFAAH.
The mark [3] stands for this setting: recombinant rat MAGL, procedure as for hMAGL.
The mark [4] stands for this setting: recombinant human MAGL, AHMMCE substrate, 15 min preincubation.

Chains of the proteins cited; added tags and fusions are not shown. Lines headed by an entry give the natural chain unless they say otherwise; changes in a name come on top. Residues count along the entry.
UniProt P97612, 30-579 limits assumed, stated change not applied: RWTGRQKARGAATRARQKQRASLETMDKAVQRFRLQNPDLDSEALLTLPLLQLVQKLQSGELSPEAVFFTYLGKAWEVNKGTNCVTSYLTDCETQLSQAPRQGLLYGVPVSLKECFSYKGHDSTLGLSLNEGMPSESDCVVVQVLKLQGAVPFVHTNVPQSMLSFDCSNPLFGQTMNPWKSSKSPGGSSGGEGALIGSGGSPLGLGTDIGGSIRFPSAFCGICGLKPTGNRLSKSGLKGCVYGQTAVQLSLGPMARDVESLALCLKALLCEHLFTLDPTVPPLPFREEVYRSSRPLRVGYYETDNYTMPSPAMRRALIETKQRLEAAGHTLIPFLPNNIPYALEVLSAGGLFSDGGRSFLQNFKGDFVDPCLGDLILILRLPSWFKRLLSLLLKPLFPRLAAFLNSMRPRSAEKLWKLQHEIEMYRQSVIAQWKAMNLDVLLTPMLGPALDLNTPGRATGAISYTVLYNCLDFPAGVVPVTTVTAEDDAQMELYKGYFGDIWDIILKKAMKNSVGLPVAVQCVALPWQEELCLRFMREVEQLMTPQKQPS
UniProt O00519, 30-579 limits assumed, stated change not applied: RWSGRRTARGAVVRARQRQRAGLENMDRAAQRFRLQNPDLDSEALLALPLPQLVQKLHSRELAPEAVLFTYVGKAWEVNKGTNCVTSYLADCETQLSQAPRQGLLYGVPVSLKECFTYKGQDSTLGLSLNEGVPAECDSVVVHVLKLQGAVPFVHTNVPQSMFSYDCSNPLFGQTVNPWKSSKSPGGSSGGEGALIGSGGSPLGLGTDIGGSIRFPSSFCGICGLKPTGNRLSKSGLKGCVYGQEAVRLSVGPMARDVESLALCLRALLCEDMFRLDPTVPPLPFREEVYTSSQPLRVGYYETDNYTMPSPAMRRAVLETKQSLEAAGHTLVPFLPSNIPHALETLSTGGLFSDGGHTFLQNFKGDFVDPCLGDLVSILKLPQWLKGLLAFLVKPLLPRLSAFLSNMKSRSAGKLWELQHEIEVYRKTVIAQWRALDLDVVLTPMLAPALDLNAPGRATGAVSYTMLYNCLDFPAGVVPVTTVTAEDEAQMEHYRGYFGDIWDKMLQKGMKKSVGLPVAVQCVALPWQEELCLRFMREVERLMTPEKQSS
UniProt Q8R431, whole entry: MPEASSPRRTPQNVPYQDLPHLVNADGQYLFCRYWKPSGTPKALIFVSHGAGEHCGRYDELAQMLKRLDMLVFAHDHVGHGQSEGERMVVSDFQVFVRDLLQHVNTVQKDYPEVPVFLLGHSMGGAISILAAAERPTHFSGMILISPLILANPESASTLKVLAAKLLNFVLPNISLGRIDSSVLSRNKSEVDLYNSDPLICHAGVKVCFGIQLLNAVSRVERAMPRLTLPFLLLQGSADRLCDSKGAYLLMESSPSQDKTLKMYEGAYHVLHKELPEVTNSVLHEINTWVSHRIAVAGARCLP
UniProt Q99685, whole entry: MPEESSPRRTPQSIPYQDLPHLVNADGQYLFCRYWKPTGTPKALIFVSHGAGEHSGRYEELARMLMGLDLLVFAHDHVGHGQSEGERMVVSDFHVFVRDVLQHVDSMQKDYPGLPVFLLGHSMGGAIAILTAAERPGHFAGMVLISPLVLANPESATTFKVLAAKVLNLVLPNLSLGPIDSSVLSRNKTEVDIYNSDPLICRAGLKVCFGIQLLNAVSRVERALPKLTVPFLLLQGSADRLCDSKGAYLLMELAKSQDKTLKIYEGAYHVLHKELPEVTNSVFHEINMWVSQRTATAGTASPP

Read-outs that look alike come from different tables or passages of the source. Structures were worked out from names or drawings and are uncertain.

Regarding `O=C(N1C[C@@H]2C[C@H]1CN2c1cccc(OCc2ccccc2)c1)n1cnc(-c2ccccc2)c1`, the IC50 on ΔTM rat FAAH (setting [1]), on Human FAAH (MBPΔTMhFAAH) (setting [2]), at Rat MAGL (rMAGL) (setting [3]) and on Human MAGL (hMAGL) (setting [4]) was more than 1000 nM in each case.

As for `O=C(Nc1cccc(Br)c1)N1C[C@@H]2C[C@H]1CN2Cc1ccc2ccccc2n1`, the IC50 is 10 to 100 nM on ΔTM rat FAAH (setting [1]), 10 to 100 nM on Human FAAH (MBPΔTMhFAAH) (setting [2]), more than 1000 nM on Rat MAGL (rMAGL) (setting [3]) and more than 1000 nM at Human MAGL (hMAGL) (setting [4]).

For the molecule `C[C@H]1CN(Cc2cccc(Oc3ccccc3)c2)CCN1C(=O)Nc1cccc(-c2cccc(C#N)c2)c1`, the IC50 at ΔTM rat FAAH was 10 to 100 nM; at Human FAAH (MBPΔTMhFAAH), 10 to 100 nM; on Rat MAGL (rMAGL), more than 1000 nM; on Human MAGL (hMAGL), more than 1000 nM.

Values taken from patent publication US11214578B2, “Urea/carbamates FAAH MAGL or dual FAAH/MAGL inhibitors and uses thereof” (Northeastern University, priority 2014, dated 2022).
